Results: PubChem BioAssay AID2685 (National Center for Advancing Translational Sciences (NCATS), 2010)
The other results are listed elsewhere or left out. The main result of the screen is listed elsewhere. These columns were measured beside it and carry no call. Compounds called inactive in the main read-out are mostly missing here. Potencies come from curve fits of mixed quality, noted in brackets.

Experiment: qHTS Assay for Lipid Storage Modulators in Drosophila S3 Cells;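 on cell number change: cells counted by Cell Tracker Red CMTPX staining in the red channel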
Details: BODIPY lipid droplet fluorescence, 18-24 h; for cell number change: measured here: cell count max response, cells fed with added oleic acid
In short: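 Laser-scanning cytometry quantifies lipid droplet accumulation (500–530 nm total intensity; droplet/cell object ratio) in oleic acid-fed (400 uM added) Drosophila S3 cells treated with a concentration series. 20 uM Triacsin C defined 100% inhibition.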

[1] = measured here: lipid fluorescence (Fed channel) AC50, cells fed with added oleic acid
[2] = measured here: cell number channel AC50, cells fed with added oleic acid

Row | SMILES | cell number change [%] | AC50 [1] | AC50 [2]
1 | O=S(=O)(NC1CCCCC1Oc1ccccc1)c1ccc(Cl)cc1 (stereo unspecified) | -19.7 | 0.13 µM [falling, full curve] | 
2 | COc1ccc(CCn2ccc(O)c(Cc3c(F)cccc3Cl)c2=O)cc1OC | -65.2 | 2.82 µM [falling, full curve] | 7.08 µM [falling, partial curve]
3 | NC(=O)c1ccc(NC(=O)COC(=O)CCCOc2ccccc2)cc1 | 14.5 |  | 
4 | CCOc1ccc(Cl)cc1S(=O)(=O)N1CCC(C(=O)NCc2ccccn2)CC1 | 11.3 | 6.51 µM [rising, single point] | 
5 | O=C(Nc1ccc(Cl)cc1)[C@@H]1[C@@H]2C(=O)N(c3ccc(Cl)cc3)C(=O)[C@@H]2[C@H]2C=CC=NN21 |  | 1.84 µM [rising, partial curve] | 0.651 µM [rising, partial curve]
6 | CSc1cccc(NC(=O)C2CCN(S(=O)(=O)c3cnc[nH]3)CC2)c1 | 7.96 |  | 
7 | CC(=O)c1cccc(NC(=O)c2sc3nc4n(c(=O)c3c2C)CCCCC4)c1 | -43.6 | 4.11 µM [falling, full curve] | 20.6 µM [falling, single point]
8 | O=C(CS(=O)CC(=O)N(CC(=O)NC1CCCC1)C1CCCC1)Nc1ccc(F)cc1 (stereo unspecified) | 3.37 |  | 
9 | Cc1ccc(-c2noc(CN(C)C(=O)Nc3ccc(F)cc3)n2)cc1 | -9.23 | 23.1 µM [falling, single point] | 
10 | C[C@@]12C(=O)Nc3cc(Cl)ccc3C(=O)N1[C@H]1c3cc(Br)ccc3OC[C@@H]1[C@@H]2c1ccccc1 | 7.66 | 2.91 µM [rising, partial curve] | 
11 | COc1ccccc1CNC(=O)c1cccc(S(=O)(=O)N(C)c2ccccc2)c1 | -7.77 |  | 
12 | COc1ccc(-c2nc3c(n2O)CCc2c-3no[n+]2[O-])cc1 | -1.22 | 0.291 µM [falling, partial curve, poor fit] | 
13 | Cc1cccc(N2CCN(Cc3nc(-c4cccc(Cl)c4)oc3C)CC2)n1 | -37.7 | 20.6 µM [falling, single point] | 13 µM [falling, partial curve]
14 | O=C(CSc1ccc2ccccc2n1)N1CCC(c2noc3ccc(F)cc23)CC1 | -33.3 | 29.1 µM [falling, single point] | 32.6 µM [falling, single point]
15 | COc1ccc(CCN2CC(C(=O)NCC(=O)Nc3ccc(F)c(F)c3)CC2=O)cc1OC (stereo unspecified) | -11 | 0.092 µM [falling, full curve, poor fit] | 
16 | CCOc1cc(-c2noc(CCC(=O)N3CCOCC3)n2)ccc1OC | 11.6 | 29.1 µM [rising, single point] | 
17 | Cc1cc2ncc(S(=O)(=O)c3ccccc3)c(N)n2n1 | 3.13 |  | 
18 | O=C(COc1ccc2ccccc2c1)Nc1ccc(Br)cc1C(=O)O | 18.5 | 0.82 µM [rising, full curve, poor fit] | 
19 | O=C(NCCOc1ccccc1)c1ccccc1SCC(=O)N1CCCC1 | -1.18 | 2.91 µM [rising, single point] | 

Row | SMILES | cell number change [%] | AC50 [1] | AC50 [2]
20 | O=C(NCCCCNC(=O)c1cccnc1Cl)c1cccnc1Cl | 26.5 | 1.3 µM [falling, full curve] | 
21 | COC(=O)C1=CN(c2ccc(F)cc2)C=C(C(=O)OC)C1c1cccc(Br)c1 | 53.7 |  | 29.1 µM [rising, single point]
22 | O=C(O)CC/C(=N\Nc1ccc([N+](=O)[O-])cc1)c1ccccc1 | -58.1 | 29.1 µM [falling, single point] | 29.1 µM [falling, single point]
23 | COc1ccc(C(=O)Nc2cccc(OC)c2)cc1 | -0.382 | 20.6 µM [falling, partial curve, poor fit] | 
24 | Cc1ccc(CNCC(O)c2ccccc2)s1 (stereo unspecified) | -17.1 |  | 
25 | COc1ccc(C2CC(=O)C3=C(C2)Nc2ncnn2C3c2ccccc2C)c(OC)c1 (stereo unspecified) | 21.8 |  | 2.06 µM [rising, full curve, poor fit]
26 | CCOC(=O)c1c(NC(=O)CSc2ncn[nH]2)sc(C)c1C |  | 1.3 µM [rising, full curve] | 0.291 µM [rising, full curve]
27 | COc1cc(O)c(C(CC(=O)N2CCCC(C)C2)c2ccc3c(c2)OCO3)c(OC)c1 (stereo unspecified) | 47.1 | 32.6 µM [rising, partial curve] | 29.1 µM [rising, single point]
28 | Cc1cc(C)nc(SCc2nnc(SCC(=O)N3CCCc4ccccc43)n2C)n1 | 18.7 | 7.31 µM [rising, partial curve] | 
29 | COc1cc(C#N)ccc1OCC(=O)c1ccc2c(c1)OCCO2 | 17.2 |  | 2.06 µM [rising, single point]
30 | CCOc1ccccc1N1CCN(S(=O)(=O)c2cccs2)CC1 | -0.65 | 29.1 µM [rising, single point] | 
31 | O=C(CNC(=O)Cc1ccccc1)NCC(=O)OCC(=O)c1cccc2ccccc12 | -12.5 | 3.26 µM [falling, partial curve, poor fit] | 6.51 µM [falling, single point]
32 | COc1ccc(-c2noc(CNC(=O)CCCN3C(=O)[C@H]4CC=CC[C@H]4C3=O)n2)cc1 | -51.3 | 29.1 µM [falling, single point] | 29.1 µM [falling, single point]
33 | O=c1c2ccccc2nnn1Cc1ccc(Br)cc1 | 15 |  | 
34 | O=C(NCc1ccc(F)cc1)C(c1ccccc1)N(C(=O)c1csnn1)c1ccccc1 (stereo unspecified) | 10.7 | 29.1 µM [rising, single point] | 
35 | CCOc1ccc(-c2cc(C(=O)O)c3ccccc3n2)cc1 | -5.6 |  | 
36 | S=C(NC1CCCCC1)N1CCN(C2CCCCC2)CC1 | -15.7 | 6.51 µM [falling, single point] | 
37 | CCOC(=O)C1CCN(S(=O)(=O)c2ccccc2)CC1 | -18.8 | 6.51 µM [falling, single point] | 
38 | Cc1ccccc1N=Nc1c(C)[nH]n(C(N)=S)c1=O | 3.68 | 2.06 µM [rising, full curve, poor fit] | 

3 structures out of the list, ordered by number of heavy atoms, ascending.
Row | SMILES | cell number change [%] | AC50 [1] | AC50 [2]
26 | CCOC(=O)c1c(NC(=O)CSc2ncn[nH]2)sc(C)c1C |  | 1.3 µM [rising, full curve] | 0.291 µM [rising, full curve]
18 | O=C(COc1ccc2ccccc2c1)Nc1ccc(Br)cc1C(=O)O | 18.5 | 0.82 µM [rising, full curve, poor fit] | 
3 | NC(=O)c1ccc(NC(=O)COC(=O)CCCOc2ccccc2)cc1 | 14.5 |  | 
